# Some of the results follow.
# Protein sequences, listed by entry. Tags and fused reporters are not part of them. Lines headed by an entry give the natural chain unless they say otherwise; changes in a name come on top.
# UniProt P05165: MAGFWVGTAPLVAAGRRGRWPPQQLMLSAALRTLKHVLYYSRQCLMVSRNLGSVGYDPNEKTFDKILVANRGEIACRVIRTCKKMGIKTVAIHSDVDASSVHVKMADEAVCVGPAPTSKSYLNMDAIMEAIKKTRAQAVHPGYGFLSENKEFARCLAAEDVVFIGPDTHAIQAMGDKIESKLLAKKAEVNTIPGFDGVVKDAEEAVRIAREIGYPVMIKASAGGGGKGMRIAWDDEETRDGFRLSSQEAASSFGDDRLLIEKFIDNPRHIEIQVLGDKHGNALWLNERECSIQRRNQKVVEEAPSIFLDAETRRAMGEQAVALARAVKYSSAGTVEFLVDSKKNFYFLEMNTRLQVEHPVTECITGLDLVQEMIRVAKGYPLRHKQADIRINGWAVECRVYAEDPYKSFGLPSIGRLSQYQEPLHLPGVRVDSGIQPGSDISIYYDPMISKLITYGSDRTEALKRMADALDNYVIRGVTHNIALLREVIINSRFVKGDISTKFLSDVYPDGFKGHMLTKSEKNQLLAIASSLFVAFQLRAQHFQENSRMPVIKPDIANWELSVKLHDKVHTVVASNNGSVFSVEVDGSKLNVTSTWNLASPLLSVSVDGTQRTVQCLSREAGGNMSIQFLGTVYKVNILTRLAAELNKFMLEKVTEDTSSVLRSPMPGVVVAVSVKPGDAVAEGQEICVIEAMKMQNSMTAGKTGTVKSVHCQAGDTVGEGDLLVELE
# UniProt Q6ZS72: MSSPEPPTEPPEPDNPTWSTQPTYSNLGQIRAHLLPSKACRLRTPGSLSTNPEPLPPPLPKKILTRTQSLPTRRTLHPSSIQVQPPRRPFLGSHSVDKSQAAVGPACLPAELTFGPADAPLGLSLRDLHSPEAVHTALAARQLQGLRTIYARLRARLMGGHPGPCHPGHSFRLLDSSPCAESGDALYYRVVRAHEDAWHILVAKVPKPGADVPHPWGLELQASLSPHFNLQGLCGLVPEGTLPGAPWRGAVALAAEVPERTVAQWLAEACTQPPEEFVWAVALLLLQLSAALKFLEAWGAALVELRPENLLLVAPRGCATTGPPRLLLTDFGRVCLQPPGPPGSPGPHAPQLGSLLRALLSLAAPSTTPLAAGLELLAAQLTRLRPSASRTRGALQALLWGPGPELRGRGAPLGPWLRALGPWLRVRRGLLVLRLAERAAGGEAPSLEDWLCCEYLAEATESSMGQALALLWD
# UniProt P49585: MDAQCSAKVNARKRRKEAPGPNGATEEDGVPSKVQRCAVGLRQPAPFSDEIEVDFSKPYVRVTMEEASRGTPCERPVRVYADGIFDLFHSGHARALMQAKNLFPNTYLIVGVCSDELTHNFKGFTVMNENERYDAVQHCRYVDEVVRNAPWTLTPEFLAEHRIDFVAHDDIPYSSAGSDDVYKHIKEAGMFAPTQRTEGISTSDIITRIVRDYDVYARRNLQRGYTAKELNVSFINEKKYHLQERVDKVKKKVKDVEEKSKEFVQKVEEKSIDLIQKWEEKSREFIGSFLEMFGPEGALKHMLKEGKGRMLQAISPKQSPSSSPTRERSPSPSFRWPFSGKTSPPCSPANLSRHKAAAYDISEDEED
# UniProt Q14554: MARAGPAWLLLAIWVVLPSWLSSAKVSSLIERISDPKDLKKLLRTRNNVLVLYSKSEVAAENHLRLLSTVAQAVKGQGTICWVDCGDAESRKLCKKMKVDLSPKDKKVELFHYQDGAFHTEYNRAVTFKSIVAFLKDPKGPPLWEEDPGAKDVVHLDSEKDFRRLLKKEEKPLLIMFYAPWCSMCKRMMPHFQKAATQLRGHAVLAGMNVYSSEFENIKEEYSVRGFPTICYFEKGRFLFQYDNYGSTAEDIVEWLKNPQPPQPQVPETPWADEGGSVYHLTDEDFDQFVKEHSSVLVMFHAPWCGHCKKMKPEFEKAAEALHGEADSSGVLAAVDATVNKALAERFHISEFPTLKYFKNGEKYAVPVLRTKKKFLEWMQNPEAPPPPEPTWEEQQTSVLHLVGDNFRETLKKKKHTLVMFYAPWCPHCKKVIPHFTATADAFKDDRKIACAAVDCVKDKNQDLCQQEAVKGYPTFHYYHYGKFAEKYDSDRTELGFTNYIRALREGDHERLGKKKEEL
# UniProt O95613: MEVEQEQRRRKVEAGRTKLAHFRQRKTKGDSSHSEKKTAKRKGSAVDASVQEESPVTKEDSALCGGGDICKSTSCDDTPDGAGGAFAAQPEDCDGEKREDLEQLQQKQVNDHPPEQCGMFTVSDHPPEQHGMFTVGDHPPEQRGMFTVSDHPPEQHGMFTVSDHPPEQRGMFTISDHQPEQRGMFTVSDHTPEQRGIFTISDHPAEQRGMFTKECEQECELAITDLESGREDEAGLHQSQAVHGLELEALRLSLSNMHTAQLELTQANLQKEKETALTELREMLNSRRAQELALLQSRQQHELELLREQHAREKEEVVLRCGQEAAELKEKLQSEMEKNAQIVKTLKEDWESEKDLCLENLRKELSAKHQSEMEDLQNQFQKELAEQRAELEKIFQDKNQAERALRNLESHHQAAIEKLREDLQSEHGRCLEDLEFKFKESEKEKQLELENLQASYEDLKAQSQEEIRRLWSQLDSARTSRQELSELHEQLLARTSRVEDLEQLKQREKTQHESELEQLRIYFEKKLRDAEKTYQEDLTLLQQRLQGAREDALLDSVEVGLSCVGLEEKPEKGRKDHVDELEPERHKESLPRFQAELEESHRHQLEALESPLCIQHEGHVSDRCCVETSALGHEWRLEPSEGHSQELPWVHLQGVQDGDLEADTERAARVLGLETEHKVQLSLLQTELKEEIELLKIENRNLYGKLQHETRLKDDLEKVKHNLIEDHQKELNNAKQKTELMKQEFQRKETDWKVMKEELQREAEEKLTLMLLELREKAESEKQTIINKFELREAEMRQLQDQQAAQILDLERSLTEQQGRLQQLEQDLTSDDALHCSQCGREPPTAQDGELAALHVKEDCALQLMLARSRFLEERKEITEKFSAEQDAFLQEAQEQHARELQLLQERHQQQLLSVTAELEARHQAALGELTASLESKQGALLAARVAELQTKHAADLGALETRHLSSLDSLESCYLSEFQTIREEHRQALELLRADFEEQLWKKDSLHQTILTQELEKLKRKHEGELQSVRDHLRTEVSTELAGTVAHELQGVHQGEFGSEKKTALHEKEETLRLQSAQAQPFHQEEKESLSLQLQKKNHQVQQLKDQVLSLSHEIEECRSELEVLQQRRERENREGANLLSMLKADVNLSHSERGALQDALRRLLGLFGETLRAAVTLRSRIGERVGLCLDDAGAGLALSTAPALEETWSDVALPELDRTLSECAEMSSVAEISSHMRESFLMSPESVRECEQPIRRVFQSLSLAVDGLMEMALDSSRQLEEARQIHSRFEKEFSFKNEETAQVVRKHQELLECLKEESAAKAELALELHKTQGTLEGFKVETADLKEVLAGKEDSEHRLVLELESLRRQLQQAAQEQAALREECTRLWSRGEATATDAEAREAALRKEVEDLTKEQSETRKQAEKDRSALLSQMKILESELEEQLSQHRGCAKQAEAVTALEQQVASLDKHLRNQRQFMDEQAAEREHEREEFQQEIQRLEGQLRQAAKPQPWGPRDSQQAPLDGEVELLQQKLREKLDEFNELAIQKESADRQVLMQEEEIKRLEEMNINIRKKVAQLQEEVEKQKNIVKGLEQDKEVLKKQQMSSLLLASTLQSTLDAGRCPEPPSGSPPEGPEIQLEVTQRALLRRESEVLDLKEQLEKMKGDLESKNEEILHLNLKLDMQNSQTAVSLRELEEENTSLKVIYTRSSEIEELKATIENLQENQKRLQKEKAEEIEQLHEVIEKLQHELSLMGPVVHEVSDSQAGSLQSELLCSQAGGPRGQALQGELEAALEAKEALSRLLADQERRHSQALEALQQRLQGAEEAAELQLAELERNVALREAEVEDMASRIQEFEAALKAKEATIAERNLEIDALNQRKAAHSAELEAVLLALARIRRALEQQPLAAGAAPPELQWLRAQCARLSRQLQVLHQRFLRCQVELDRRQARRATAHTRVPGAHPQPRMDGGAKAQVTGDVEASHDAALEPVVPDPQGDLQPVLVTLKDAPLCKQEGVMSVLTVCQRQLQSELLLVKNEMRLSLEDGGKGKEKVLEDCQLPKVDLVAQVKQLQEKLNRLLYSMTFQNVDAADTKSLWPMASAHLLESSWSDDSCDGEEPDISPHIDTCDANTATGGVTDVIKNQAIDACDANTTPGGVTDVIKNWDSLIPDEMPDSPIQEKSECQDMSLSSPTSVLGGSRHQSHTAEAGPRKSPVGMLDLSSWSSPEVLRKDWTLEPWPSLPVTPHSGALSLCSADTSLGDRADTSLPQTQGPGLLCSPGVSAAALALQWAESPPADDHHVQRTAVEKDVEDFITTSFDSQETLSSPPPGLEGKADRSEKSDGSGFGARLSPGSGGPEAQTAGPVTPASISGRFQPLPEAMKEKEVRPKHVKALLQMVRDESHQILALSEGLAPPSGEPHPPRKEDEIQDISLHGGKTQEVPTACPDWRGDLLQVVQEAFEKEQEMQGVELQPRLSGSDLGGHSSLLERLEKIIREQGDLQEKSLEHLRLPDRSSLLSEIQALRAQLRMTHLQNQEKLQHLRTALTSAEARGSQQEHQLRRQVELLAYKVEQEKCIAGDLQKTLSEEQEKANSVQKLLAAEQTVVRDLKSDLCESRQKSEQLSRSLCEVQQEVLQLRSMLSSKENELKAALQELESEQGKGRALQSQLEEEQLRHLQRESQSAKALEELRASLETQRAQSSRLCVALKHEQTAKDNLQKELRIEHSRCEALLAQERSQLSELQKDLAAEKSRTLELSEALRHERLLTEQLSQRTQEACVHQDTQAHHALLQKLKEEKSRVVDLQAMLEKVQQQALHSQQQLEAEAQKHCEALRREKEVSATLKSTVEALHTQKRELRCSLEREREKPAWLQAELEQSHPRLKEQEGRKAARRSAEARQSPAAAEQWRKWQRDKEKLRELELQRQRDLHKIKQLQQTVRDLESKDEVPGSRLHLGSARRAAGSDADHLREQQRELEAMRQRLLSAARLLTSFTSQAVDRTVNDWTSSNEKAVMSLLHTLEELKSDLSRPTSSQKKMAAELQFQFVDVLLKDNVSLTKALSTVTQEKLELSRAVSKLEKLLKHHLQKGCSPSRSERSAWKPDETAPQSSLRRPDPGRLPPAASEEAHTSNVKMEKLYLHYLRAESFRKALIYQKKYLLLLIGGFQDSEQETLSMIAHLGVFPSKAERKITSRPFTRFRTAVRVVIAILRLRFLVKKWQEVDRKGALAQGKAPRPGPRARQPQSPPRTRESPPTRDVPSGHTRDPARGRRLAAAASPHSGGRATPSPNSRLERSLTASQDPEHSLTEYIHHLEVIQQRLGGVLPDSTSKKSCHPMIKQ
# UniProt O00764: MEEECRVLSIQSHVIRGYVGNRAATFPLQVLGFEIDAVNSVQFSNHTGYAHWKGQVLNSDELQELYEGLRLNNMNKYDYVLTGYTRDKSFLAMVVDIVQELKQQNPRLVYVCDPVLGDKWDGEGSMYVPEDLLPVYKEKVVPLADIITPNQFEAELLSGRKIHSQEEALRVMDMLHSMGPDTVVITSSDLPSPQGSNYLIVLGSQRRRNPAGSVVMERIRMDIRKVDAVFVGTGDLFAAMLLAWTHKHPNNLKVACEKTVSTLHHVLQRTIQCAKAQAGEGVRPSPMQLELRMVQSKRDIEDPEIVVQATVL
# UniProt P12004, whole entry, looked up: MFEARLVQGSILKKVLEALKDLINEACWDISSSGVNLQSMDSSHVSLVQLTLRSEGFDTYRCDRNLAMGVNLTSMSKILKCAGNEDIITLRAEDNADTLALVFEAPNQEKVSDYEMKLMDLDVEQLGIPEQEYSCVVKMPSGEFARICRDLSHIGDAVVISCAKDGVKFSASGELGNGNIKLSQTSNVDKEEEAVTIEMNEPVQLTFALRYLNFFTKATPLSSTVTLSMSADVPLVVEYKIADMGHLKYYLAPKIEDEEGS
# UniProt Q96HC4: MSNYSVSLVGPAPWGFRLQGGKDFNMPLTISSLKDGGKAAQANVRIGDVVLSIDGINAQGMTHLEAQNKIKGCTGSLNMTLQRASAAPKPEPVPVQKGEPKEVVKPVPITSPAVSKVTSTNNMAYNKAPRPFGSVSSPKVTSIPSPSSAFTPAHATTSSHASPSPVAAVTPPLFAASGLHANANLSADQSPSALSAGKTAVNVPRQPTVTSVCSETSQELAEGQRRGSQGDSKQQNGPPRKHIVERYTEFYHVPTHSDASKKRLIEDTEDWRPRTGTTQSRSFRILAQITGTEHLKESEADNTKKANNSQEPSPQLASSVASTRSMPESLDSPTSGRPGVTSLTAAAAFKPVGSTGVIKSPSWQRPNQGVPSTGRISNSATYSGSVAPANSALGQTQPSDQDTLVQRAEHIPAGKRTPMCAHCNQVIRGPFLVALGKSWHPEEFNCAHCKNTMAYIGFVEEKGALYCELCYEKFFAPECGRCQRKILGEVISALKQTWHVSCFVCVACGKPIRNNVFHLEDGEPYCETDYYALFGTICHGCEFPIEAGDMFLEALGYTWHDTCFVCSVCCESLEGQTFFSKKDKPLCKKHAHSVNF
# Compound: Cc1cc(ccc1-c1ccccc1)C(=O)N1CCCN(CC1)C(=O)CCl [compound 10]
# Assay: probe-labelled cysteine peptide fold change vs DMSO (competition) (log2 fold change); higher = less target engagement (more negative = stronger competition)
# Conditions: THP-1, incubation time: 4 h
# 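Note: competitive profiling in live THP-1 cells: cysteine peptides tagged with an iodoacetamide desthiobiotin (IA-DTB) probe, intensity after compound treatment relative to DMSO-treated cells.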
Target,probe-labelled cysteine peptide fold change (10 µM),probe-labelled cysteine peptide fold change (50 µM)
PDLIM7_Q9NR12_341_YAPSCAK (UniProt Q9NR12),-0.069,-0.47
PDLIM1_O00151_286_HPECYVCTDCGTNLK (UniProt O00151),0.0863,-0.0146
PDHA1_P08559_273_FAAAYCR (UniProt P08559),0.0385,-0.0209
PCBP1_Q15365_293_GYWASLDASTQTTHELTIPNNLIGCIIGR (UniProt Q15365),0.167,0.267
PCCA_P05165_155_CLAAEDVVFIGPDTHAIQAMGDKIESK (UniProt P05165),-0.0769,-0.234
PDE12_Q6L8Q7_348_ELTGYNADVICLQEVDR (UniProt Q6L8Q7),0.195,0.326
PDK3_Q15120_191_HIGSIDPTCNVADVVK (UniProt Q15120),0.207,-0.0672
PCYOX1_Q9UHG3_258_LVCSGLLQASK (UniProt Q9UHG3),-0.036,0.294
PDLIM1_O00151_283+289_HRHPECYVCTDCGTNLK (UniProt O00151),0.0267,0.00299
PDIA4_P13667_94_DTVLLEFYAPWCGHCK (UniProt P13667),-0.0929,-1.03
PAXIP1_Q6ZW49_1029_QNSSLSEIILISCENDLHLCR (UniProt Q6ZW49),-0.00198,0.0614
PDPR_Q8NCN5_653_AVDVLSELSYAPMTPDHFPSLFCK (UniProt Q8NCN5),0.213,-0.0693
PDLIM1_O00151_45_AALANLCIGDVITAIDGENTSNMTHLEAQNR (UniProt O00151),0.0121,-0.108
PEAK3_Q6ZS72_107_SQAAVGPACLPAELTFGPADAPLGLSLR (UniProt Q6ZS72),-0.373,-0.749
PCYT1A_P49585_5_MDAQCSAK (UniProt P49585),-0.181,-0.352
PCDH17_O14917_335_DLGPNPIPAHCK (UniProt O14917),-0.0867,-0.403
PDIA5_Q14554_465_NQDLCQQEAVK (UniProt Q14554),-0.225,-0.137
PCYT2_Q99447_306_VDLVCHGK (UniProt Q99447),0.157,0.181
PASK_Q96RG2_759+761_ELFFSDQTDQTSSNCSCATSELR (UniProt Q96RG2),-0.0514,-0.658
PDHB_P11177_249_QGTHITVVSHSRPVGHCLEAAAVLSK (UniProt P11177),0.0439,-0.246
PDS5A_Q29RF7_589_QADICVR (UniProt Q29RF7),0.077,-0.379
PDIA6_Q15084_291_RTCEEHQLCVVAVLPHILDTGAAGR (UniProt Q15084),0.0625,-0.132

Target,probe-labelled cysteine peptide fold change (10 µM),probe-labelled cysteine peptide fold change (50 µM)
PCYOX1L_Q8NBM8_250_LVCSGLLK (UniProt Q8NBM8),-0.246,0.226
PDHA1_P08559_261_VDGMDILCVR (UniProt P08559),0.0657,0.13
PBK_Q96KB5_70_KINPICNDHYR (UniProt Q96KB5),-0.0226,-0.316
PDE3B_Q13370_475_RPHQEFGISSQGCYLNGPFNSNLLTIPK (UniProt Q13370),-0.322,-0.854
PCID2_Q5JVF3_25_DGASCAELVSFK (UniProt Q5JVF3),-0.229,-0.162
PCK2_Q16822_63_LCQPEGIHICDGTEAENTATLTLLEQQGLIR (UniProt Q16822),-0.371,0.0104
PBRM1_Q86U86_1224+1228_EVFLSNLEETCPMTCILGK (UniProt Q86U86),-0.202,-0.224
PDK1_Q15118_223_HIGSINPNCNVLEVIK (UniProt Q15118),-0.0597,0.498
PARVG_Q9HBI0_314_VLYGLFCK (UniProt Q9HBI0),0.0747,-0.000829
PDIA4_P13667_91+94_DTVLLEFYAPWCGHCK (UniProt P13667),-0.227,-1.17
PDPK1_O15530_181_KIGSFDETCTR (UniProt O15530),-0.0166,-0.0773
PCNT_O95613_357_DLCLENLR (UniProt O95613),0.271,0.13
PDS5A_Q29RF7_14_PATALCGVVSADGK (UniProt Q29RF7),-0.366,-0.589
PDLIM1_O00151_283_HPECYVCTDCGTNLK (UniProt O00151),-0.0359,0.00239
PCF11_O94913_1346_LYTGIQCYSCGMR (UniProt O94913),0.117,0.154
PDCD4_Q53EL6_227_LLSDLCGTVMSTTDVEK (UniProt Q53EL6),0.26,0.251
PAXX_Q9BUH6_180_RCPGESLINPGFK (UniProt Q9BUH6),-0.248,-0.761
PDE4DIP_Q5VU43_375_QCVQFVEAAAHESEQQK (UniProt Q5VU43),-0.0153,-0.224
PCYT1A_P49585_37_CAVGLR (UniProt P49585),-0.0934,-0.0815
PDXK_O00764_112_LVYVCDPVLGDK (UniProt O00764),-0.0684,0.408
PDCD2_Q16342_281_DIPDCPCGAK (UniProt Q16342),-0.0904,-0.265
PDCD11_Q14690_510_VLLCDPEAK (UniProt Q14690),-0.0625,0.0212

Target,probe-labelled cysteine peptide fold change (10 µM),probe-labelled cysteine peptide fold change (50 µM)
PATZ1_Q9HBE1_463_SHLACHEDK (UniProt Q9HBE1),-0.0133,0.0509
PCNA_P12004_81_CAGNEDIITLR (UniProt P12004),0.0309,0.182
PDIA3_P30101_244_FIQENIFGICPHMTEDNK (UniProt P30101),-0.147,-0.104
PDLIM1_O00151_73_GCTDNLTLTVAR (UniProt O00151),0.00437,0.0725
PDZD8_Q8NEN9_667_DVTSETSCPTK (UniProt Q8NEN9),-0.365,-0.476
PDLIM1_O00151_283+286+289_HRHPECYVCTDCGTNLK (UniProt O00151),-0.042,-0.245
PATL1_Q86TB9_589_GKLPGQERPSDDHFVQIMCIR (UniProt Q86TB9),-0.0158,0.0528
PARP9_Q8IXQ6_82_QLCEVLQNK (UniProt Q8IXQ6),-0.3,-0.162
PDLIM7_Q9NR12_364_MTWHVHCFTCAACK (UniProt Q9NR12),-0.0792,-0.0447
PDLIM1_O00151_307_GHFFVEDQIYCEK (UniProt O00151),-0.0541,-0.017
PDLIM4_P50479_72_GCHDHLTLSVSRPEGR (UniProt P50479),0.599,-0.181
PDCD11_Q14690_1754_ALECLPSK (UniProt Q14690),0.00256,0.153
PCBD2_Q9H0N5_109_VQITLTSHDCGELTK (UniProt Q9H0N5),0.176,0.164
PDS5B_Q9NTI5_571_QLEVLVSPTCSCK (UniProt Q9NTI5),0.0189,-0.0846
PDLIM5_Q96HC4_449_SWHPEEFNCAHCK (UniProt Q96HC4),0.0465,-0.346
PCM1_Q15154_1616_EHMDEVCSSQLLTSVR (UniProt Q15154),0.207,0.0857
PCYT1A_P49585_139_GFTVMNENERYDAVQHCR (UniProt P49585),-0.254,-0.458
PDLIM2_Q96JY6_310_YRHPGCYTCADCGLNLK (UniProt Q96JY6),0.00151,-0.173
PDLIM4_P50479_258_CGHGIVGTIVK (UniProt P50479),-0.0847,-0.546
PCM1_Q15154_1717_IEATGVIQSCAK (UniProt Q15154),-0.344,-0.184
PARP8_Q8N3A8_332_TDDVCVTK (UniProt Q8N3A8),-0.15,0.0356
PDHA1_P08559_41_KCDLHR (UniProt P08559),-0.0812,0.0515

Target,probe-labelled cysteine peptide fold change (10 µM),probe-labelled cysteine peptide fold change (50 µM)
PDLIM2_Q96JY6_334_GHFWVGDELYCEK (UniProt Q96JY6),0.139,0.0713
PDCD2L_Q9BRP1_80_LLHVFACACPGCSTGGAR (UniProt Q9BRP1),0.0718,-0.203
PDXK_O00764_5_MEEECR (UniProt O00764),0.11,0.193
PDCD11_Q14690_557_DYGCIVK (UniProt Q14690),-0.0517,0.208
PDCD11_Q14690_694_VLCLSQSEGR (UniProt Q14690),0.181,0.0308
PDIA5_Q14554_81_GQGTICWVDCGDAESR (UniProt Q14554),-0.0401,0.0612
PDE12_Q6L8Q7_530_CNMSLTHFFK (UniProt Q6L8Q7),0.117,0.0617
PDLIM1_O00151_286_HRHPECYVCTDCGTNLK (UniProt O00151),0.164,0.136
PDF_Q9HBH1_68_LVLGPPEPPFSHVCQVGDPVLR (UniProt Q9HBH1),-0.0864,0.113
PCNT_O95613_1119_DQVLSLSHEIEECRSELEVLQQR (UniProt O95613),0.112,0.146
PCK2_Q16822_417_EPCAHPNSR (UniProt Q16822),-0.0707,0.384
PDIA3_P30101_57+60_ISDTGSAGLMLVEFFAPWCGHCK (UniProt P30101),-0.103,-0.72
PCCA_P05165_398_INGWAVECR (UniProt P05165),0.181,0.357
PDIA3_P30101_85+92_VDCTANTNTCNK (UniProt P30101),-0.107,-0.048
PDS5A_Q29RF7_1084_LYTVCDVALCVINSK (UniProt Q29RF7),0.00818,0.0739
PBRM1_Q86U86_50_LSNLPTVDPIAVCHELYNTIR (UniProt Q86U86),-0.121,0.0706
PEAK3_Q6ZS72_318_GCATTGPPR (UniProt Q6ZS72),-0.0167,-0.144
PCYT2_Q99447_110_YNCDFCVHGNDITLTVDGR (UniProt Q99447),0.0192,-0.879
PDLIM5_Q96HC4_420_TPMCAHCNQVIR (UniProt Q96HC4),0.0871,-0.199

# From the supplement of paper PMC12067093, “Discovery and optimisation of a covalent ligand for TRIM25 and its application to targeted protein ubiquitination” (Chemical Science, 2025)
